Reference: the supplement of paper PMC10849652
This is one part of the list.

The chains behind the UniProt entries cited, without tags or fusion partners. Where a name states a change or a piece, a line headed by the entry shows the natural chain unless it says otherwise.
UniProt P15170, whole entry, looked up: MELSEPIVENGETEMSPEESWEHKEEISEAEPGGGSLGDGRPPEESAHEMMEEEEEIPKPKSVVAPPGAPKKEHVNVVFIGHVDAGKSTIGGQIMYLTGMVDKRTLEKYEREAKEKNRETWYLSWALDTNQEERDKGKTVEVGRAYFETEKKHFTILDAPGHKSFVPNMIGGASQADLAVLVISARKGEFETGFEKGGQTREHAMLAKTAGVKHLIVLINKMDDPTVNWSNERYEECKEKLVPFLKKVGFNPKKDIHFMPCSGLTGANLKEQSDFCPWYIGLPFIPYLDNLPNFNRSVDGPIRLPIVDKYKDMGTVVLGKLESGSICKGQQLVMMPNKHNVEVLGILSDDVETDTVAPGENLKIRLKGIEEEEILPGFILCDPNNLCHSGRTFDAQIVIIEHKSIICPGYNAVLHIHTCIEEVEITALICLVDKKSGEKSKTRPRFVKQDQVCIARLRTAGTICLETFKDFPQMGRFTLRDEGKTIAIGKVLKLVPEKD
UniProt P42357: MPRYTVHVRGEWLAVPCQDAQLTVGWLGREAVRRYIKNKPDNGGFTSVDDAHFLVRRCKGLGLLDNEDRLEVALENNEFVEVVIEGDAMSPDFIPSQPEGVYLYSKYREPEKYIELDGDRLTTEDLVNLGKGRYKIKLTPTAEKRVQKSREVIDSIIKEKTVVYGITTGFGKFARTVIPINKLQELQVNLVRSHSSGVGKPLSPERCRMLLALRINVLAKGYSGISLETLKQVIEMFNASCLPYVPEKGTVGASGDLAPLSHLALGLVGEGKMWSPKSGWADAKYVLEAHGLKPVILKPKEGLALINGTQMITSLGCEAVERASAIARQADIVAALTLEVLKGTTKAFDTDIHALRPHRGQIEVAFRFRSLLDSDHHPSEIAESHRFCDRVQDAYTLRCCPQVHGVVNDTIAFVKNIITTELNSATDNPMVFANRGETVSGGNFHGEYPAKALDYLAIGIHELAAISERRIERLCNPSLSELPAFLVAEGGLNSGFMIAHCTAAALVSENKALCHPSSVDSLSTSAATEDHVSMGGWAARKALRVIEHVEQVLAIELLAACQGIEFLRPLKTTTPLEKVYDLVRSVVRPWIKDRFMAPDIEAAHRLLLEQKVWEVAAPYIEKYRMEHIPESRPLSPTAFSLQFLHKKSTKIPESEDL
UniProt Q9Y5Q9: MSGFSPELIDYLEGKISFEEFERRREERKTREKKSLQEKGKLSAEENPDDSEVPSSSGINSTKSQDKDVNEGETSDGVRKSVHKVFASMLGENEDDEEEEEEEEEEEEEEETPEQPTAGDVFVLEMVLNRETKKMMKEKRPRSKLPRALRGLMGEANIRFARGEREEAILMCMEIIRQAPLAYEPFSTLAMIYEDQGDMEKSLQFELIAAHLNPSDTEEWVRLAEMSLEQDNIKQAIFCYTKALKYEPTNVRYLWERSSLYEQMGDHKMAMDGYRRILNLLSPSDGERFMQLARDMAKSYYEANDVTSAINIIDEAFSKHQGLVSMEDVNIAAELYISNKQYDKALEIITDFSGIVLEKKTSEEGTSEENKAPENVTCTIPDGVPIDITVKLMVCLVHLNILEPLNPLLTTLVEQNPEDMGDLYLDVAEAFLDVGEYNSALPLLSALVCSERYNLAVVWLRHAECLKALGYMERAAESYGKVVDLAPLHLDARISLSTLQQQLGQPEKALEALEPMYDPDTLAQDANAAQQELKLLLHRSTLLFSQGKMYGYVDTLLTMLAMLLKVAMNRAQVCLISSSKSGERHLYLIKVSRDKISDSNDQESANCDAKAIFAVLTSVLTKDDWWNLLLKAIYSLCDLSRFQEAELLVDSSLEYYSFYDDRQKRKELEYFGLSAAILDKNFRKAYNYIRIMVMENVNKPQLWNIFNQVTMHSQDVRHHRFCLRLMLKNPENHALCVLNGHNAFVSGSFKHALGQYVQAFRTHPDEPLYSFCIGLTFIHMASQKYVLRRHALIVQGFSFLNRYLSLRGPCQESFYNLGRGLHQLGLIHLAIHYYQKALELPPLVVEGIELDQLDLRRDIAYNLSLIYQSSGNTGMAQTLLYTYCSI
UniProt Q9Y4H4: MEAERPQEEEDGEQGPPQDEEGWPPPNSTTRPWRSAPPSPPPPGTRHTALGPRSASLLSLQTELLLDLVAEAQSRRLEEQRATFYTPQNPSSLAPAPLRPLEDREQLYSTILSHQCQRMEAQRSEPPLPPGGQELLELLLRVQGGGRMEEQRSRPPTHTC
UniProt P34947, whole entry, looked up: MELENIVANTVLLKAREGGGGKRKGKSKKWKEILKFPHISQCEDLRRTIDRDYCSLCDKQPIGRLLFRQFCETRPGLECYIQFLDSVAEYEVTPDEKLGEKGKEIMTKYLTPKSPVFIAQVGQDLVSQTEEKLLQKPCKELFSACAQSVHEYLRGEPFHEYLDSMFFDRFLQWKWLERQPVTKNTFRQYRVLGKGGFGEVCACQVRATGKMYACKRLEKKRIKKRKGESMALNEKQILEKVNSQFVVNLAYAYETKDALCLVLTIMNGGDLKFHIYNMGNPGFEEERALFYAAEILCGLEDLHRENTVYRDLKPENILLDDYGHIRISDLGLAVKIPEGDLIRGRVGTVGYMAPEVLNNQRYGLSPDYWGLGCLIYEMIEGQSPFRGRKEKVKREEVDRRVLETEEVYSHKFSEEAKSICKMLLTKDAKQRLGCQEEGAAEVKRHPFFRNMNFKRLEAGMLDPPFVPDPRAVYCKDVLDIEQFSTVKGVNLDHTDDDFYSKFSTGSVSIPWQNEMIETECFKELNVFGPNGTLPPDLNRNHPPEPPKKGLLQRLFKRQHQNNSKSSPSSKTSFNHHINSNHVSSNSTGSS
UniProt Q6IC98: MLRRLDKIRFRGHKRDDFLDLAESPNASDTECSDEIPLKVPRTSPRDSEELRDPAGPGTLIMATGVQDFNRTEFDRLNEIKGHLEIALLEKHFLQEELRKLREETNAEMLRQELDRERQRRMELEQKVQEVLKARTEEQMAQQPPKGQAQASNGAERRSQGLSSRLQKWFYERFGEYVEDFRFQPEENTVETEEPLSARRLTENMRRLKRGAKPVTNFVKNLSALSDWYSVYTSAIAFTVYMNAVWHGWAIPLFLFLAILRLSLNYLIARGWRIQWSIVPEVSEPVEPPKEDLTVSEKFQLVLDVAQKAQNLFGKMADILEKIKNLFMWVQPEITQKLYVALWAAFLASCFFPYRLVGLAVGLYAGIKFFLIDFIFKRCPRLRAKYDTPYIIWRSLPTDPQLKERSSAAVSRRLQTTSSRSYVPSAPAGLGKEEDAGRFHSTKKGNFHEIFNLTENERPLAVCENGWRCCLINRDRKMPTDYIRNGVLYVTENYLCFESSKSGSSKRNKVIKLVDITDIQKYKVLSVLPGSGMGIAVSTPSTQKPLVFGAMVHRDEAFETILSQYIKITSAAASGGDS
UniProt P07305, whole entry, looked up: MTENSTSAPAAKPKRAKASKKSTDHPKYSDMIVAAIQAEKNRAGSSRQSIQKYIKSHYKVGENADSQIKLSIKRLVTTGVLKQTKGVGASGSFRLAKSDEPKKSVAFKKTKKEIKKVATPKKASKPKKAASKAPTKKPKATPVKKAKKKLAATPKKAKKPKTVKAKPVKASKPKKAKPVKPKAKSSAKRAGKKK
UniProt Q8WUI4: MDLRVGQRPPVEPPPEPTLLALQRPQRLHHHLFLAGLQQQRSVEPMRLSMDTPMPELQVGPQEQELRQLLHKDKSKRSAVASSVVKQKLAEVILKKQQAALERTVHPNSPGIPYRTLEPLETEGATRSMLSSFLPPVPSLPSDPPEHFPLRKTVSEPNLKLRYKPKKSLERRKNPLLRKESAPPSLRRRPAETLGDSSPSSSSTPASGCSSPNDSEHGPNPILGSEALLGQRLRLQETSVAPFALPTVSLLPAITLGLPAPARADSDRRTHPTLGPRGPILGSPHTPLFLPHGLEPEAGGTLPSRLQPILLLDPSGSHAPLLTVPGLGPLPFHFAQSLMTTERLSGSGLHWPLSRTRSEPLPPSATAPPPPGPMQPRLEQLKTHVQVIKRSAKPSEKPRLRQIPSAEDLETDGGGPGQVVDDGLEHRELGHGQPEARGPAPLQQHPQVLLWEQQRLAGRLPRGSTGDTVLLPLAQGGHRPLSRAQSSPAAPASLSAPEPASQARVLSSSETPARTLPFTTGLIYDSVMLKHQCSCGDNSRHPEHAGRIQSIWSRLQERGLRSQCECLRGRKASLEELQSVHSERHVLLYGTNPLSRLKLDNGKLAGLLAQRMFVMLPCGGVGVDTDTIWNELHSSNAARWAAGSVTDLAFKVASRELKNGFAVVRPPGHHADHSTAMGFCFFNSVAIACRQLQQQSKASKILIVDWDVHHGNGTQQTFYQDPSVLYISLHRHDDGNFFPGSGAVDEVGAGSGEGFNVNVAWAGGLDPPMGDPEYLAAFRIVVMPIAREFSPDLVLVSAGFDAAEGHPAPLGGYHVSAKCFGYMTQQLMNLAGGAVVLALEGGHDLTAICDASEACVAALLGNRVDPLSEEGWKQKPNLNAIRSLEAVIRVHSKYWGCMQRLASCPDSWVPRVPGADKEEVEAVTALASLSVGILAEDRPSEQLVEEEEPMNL
UniProt P28799: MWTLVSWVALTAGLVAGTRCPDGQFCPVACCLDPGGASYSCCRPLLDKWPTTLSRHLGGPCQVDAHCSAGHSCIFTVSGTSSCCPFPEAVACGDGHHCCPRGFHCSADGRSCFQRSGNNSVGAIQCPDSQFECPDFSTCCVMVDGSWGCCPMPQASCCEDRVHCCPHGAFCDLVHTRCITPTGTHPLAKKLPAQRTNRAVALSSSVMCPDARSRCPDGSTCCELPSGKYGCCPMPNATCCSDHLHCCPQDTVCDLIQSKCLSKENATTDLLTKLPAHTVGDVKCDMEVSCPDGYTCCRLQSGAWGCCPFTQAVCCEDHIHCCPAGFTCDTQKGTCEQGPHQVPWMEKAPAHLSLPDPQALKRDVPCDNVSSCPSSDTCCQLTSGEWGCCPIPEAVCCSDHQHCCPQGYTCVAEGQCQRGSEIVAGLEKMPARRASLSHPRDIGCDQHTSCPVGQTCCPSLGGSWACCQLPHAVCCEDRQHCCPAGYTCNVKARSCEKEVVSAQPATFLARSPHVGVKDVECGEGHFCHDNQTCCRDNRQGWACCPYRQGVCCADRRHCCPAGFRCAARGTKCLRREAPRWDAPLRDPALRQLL
UniProt P69892: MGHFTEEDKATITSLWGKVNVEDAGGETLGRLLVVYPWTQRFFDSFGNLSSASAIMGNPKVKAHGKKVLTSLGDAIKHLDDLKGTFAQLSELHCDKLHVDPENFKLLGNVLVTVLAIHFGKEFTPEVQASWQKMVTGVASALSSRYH
UniProt Q9UBP9: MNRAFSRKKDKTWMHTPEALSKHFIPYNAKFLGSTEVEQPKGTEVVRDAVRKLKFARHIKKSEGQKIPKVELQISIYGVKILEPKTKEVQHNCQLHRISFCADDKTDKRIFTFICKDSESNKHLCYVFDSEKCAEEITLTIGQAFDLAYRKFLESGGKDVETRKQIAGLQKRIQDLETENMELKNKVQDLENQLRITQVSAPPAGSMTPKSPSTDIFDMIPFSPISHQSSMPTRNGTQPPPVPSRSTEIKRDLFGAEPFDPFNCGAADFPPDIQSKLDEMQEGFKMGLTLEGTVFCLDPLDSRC
UniProt Q6P1K8: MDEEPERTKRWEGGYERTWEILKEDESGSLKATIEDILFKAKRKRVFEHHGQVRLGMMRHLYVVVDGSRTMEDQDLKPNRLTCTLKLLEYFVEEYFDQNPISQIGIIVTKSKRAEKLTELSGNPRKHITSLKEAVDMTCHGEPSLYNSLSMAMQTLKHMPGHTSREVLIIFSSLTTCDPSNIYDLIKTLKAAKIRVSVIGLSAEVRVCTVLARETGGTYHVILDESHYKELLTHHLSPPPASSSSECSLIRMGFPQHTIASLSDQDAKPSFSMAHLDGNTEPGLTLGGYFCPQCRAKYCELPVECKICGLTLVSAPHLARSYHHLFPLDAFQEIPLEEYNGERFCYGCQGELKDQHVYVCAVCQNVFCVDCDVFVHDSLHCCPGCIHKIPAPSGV
UniProt P46976: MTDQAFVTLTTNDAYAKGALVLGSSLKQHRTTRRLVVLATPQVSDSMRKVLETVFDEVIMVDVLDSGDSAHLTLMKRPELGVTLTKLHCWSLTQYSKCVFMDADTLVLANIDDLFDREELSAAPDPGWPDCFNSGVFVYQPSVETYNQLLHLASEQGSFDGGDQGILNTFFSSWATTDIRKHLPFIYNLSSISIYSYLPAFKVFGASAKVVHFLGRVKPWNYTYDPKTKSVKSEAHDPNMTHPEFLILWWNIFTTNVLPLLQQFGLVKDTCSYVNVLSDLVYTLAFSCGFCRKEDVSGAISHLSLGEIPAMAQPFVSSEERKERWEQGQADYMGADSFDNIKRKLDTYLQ
UniProt Q9Y2Q3: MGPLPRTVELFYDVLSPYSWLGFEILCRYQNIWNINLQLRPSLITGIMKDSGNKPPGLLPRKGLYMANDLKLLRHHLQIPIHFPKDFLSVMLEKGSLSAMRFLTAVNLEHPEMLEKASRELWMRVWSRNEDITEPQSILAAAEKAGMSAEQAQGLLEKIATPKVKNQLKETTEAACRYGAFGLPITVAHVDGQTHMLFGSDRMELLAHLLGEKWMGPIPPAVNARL

Legend:
Assay in all cases: log2 fold change, soluble protein after heating vs DMSO (PISA); higher = thermal stabilisation; K562 lysate, 10 uM; active = over 0.2 and 3.5 SD of the protein, either way, in both replicates (recomputed)
defactinib = compound: CNC(=O)c1ccc(Nc2ncc(C(F)(F)F)c(NCc3nccnc3N(C)S(C)(=O)=O)n2)cc1 [defactinib]
Outline: (§1)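 The values are log-two fold changes in thermal stability compared with solvent controls and come from duplicates. They were obtained by TMTpro 16plex LC-MS/MS, with channel sums equalised, on the supernatant after 21,000xg for 90 min. That supernatant came from crude K562 extract at 1 mg/mL protein treated with 10 μM compound for 30 min, heated for 3 min across 48°C-58°C, pooled and brought to 0.5% NP-40 at 4°C.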

[1] = compound: COc1cc2nc(-c3cc(F)ccc3O)nc(N[C@@H]3CNC[C@H]3C(C)(C)O)c2cc1OC
Outline: as §1

Tubastatin A = compound: CN1CCc2c(c3ccccc3n2Cc2ccc(C(=O)NO)cc2)C1 [Tubastatin A]
Outline: as §1

[2] = compound: CNC(=O)C1=CC=CC=C1NC2=NC(=NC=C2Cl)NC3=C(C=C(C=C3)N4CCOCC4)OC
Outline: as §1

[3] = compound: CNc1nc(-c2ccc3c(N)n[nH]c3c2)cc(N2C[C@@H](C(=O)NC3CCCCC3)CC[C@H]2C)n1
Outline: as §1

encorafenib = compound: COC(=O)N[C@@H](C)CNc1nccc(-c2cn(C(C)C)nc2-c2cc(Cl)cc(NS(C)(=O)=O)c2F)n1 [encorafenib]
Outline: as §1

[4] = compound: COC(=O)[C@H](CCSC)NC(=O)C1=C(C=C(C=C1)NC[C@H](CS)N)C2=CC=CC=C2
Outline: as §1

alisertib = compound: COc1cc(Nc2ncc3c(n2)-c2ccc(Cl)cc2C(c2c(F)cccc2OC)=NC3)ccc1C(=O)O [alisertib]
Outline: as §1

gefitinib = compound: COc1cc2ncnc(Nc3ccc(F)c(Cl)c3)c2cc1OCCCN1CCOCC1 [gefitinib]
Outline: as §1

alvocidib = compound: CN1CC[C@H](c2c(O)cc(O)c3c(=O)cc(-c4ccccc4Cl)oc23)[C@H](O)C1 [alvocidib]
Outline: as §1

Measured: log2 fold change

GSPT1 isoform 2 (UniProt P15170)
inactive: defactinib -0.149 | [1] 0.014

GRM5 (UniProt P41594)
inactive: Tubastatin A 0.069 | [2] -0.001 | [3] 0.039 | encorafenib 0.012 | [4] -0.066 | alisertib 0.006 | [1] 0.012 | gefitinib -0.129

GYPA (UniProt P02724)
inactive: alvocidib 0.311 | Tubastatin A 0.068 | [2] 0.005 | defactinib 0.063 | [3] 0.207 | encorafenib -0.004 | [4] -0.015 | [1] 0.06

GTPBP6 (UniProt O43824)
inactive: alvocidib 0.046 | defactinib 0.163 | [3] 0.673 | encorafenib -0.076 | [4] 0.235

HACD2 (UniProt Q6Y1H2)
inactive: Tubastatin A -0.205 | [2] -0.074 | [1] 0.259

GRAMD1A (UniProt Q96CP6)
inactive: [2] 0.157

HAL (UniProt P42357)
inactive: alvocidib 0.13 | Tubastatin A 0.169 | [2] -0.107 | [3] -0.226 | encorafenib -0.121 | [4] 0.301 | [1] -0.032

GTF3C3 (UniProt Q9Y5Q9)
inactive: alvocidib -0.018 | Tubastatin A -0.147 | [2] 0.043 | defactinib -0.007 | [3] 0.04 | encorafenib -0.001 | [4] 0.065 | alisertib -0.006 | [1] 0.02 | gefitinib -0.006

HAGH isoform 2 (UniProt Q16775)
inactive: Tubastatin A 0.147 | [2] 0.124 | [3] 0.1 | [1] -0.244

GUCD1 isoform 3 (UniProt Q96NT3)
inactive: Tubastatin A -0.018 | [2] -0.024 | [3] -0.096 | [1] 0.007

GPSM3 (UniProt Q9Y4H4)
inactive: alvocidib -0.021 | Tubastatin A 0.148 | [2] 0.046 | [3] -0.068 | alisertib 0.345 | [1] 0.166 | gefitinib 0.036

HBZ, A0A494C057
inactive: alvocidib 0.045 | Tubastatin A 0.007 | defactinib -0.045 | alisertib 0.005 | [1] 0.034 | gefitinib -0.127

GPT2 (UniProt Q8TD30)
inactive: Tubastatin A 0.079 | [2] 0.09 | defactinib 0.121 | [3] 0.031 | encorafenib -0.171 | [4] 0.031

HAGHL isoform 2 (UniProt Q6PII5)
inactive: Tubastatin A 0.007 | [2] 0.015 | defactinib -0.03 | [3] 0.024 | encorafenib 0.038 | [4] -0.049 | alisertib 0.048 | [1] 0.039 | gefitinib 0.123

GRK5 (UniProt P34947)
inactive: [2] 0.066 | defactinib -0.008 | alisertib -0.041 | gefitinib 0.141

GREB1 (UniProt Q4ZG55)
inactive: alvocidib -0.305 | [2] -0.052 | defactinib -0.089 | encorafenib -0.09 | [4] 0.056

H6PD (UniProt O95479)
inactive: alvocidib -0.026 | Tubastatin A 0.032 | [2] 0.047 | [3] -0.027 | encorafenib -0.134 | [4] -0.064 | alisertib -0.132 | [1] 0.013 | gefitinib -0.168

GSTO1 (UniProt Q5TA02)
inactive: alisertib 0 | [1] 0.122 | gefitinib -0.121

GRAMD4 (UniProt Q6IC98)
inactive: Tubastatin A 0.04 | [2] 0.052 | defactinib 0.037 | [3] 0.306 | encorafenib -0.143 | [4] 0.27 | alisertib -0.336 | [1] 0.186 | gefitinib 0.095

GSDMD (UniProt P57764)
inactive: Tubastatin A -0.158 | defactinib 0.086

GSDME (UniProt O60443)
inactive: alvocidib -0.058 | [2] 0.07 | [3] -0.023 | encorafenib 0.001 | [4] 0.044 | [1] -0.022

H1-0 (UniProt P07305)
inactive: [3] 0.034

HBD (UniProt E9PEW8)
inactive: alvocidib -0.006 | defactinib -0.006 | [1] 0.001

H3-2 (UniProt Q5TEC6)
inactive: Tubastatin A 0.197 | [3] 0.251 | encorafenib 0.117 | [4] -0.056

HDAC7 isoform 5 (UniProt Q8WUI4)
inactive: alvocidib -0.013 | [2] 0.052 | defactinib -0.013 | [3] 0.079 | encorafenib 0.034 | [4] -0.025 | alisertib -0.029 | [1] -0.019 | gefitinib 0.021

GRN (UniProt P28799)
inactive: alvocidib -0.016 | Tubastatin A 0.093 | [2] 0.034 | [3] -0.015 | encorafenib 0.107 | [4] -0.103 | [1] 0.178

HBG2 (UniProt P69892)
inactive: alvocidib 0.087 | Tubastatin A 0.044 | [2] 0.015 | defactinib 0.117 | [3] 0.062 | encorafenib 0.021 | [4] -0.026 | alisertib 0 | [1] 0 | gefitinib -0.079

GYG2 (UniProt O15488)
inactive: Tubastatin A 0.027 | [2] 0.084 | defactinib -0.081 | [3] -0.007 | encorafenib 0.047 | [4] -0.022 | [1] 0.056

Pulled one by one from the list above (2):
H3-2 (UniProt Q5TEC6)
inactive: Tubastatin A 0.197 | [3] 0.251 | encorafenib 0.117 | [4] -0.056

HDAC7 isoform 5 (UniProt Q8WUI4)
inactive: alvocidib -0.013 | [2] 0.052 | defactinib -0.013 | [3] 0.079 | encorafenib 0.034 | [4] -0.025 | alisertib -0.029 | [1] -0.019 | gefitinib 0.021

Going on with the list:

GULP1 (UniProt Q9UBP9)
inactive: alvocidib 0.042 | Tubastatin A -0.153 | [2] -0.057 | defactinib 0.013 | [3] -0.031 | encorafenib 0.067 | [4] -0.161 | alisertib 0.024 | gefitinib -0.093

HDGFL2 isoform 2 (UniProt Q7Z4V5)
inactive: alvocidib -0.155 | Tubastatin A 0.011 | [2] 0.013 | defactinib -0.008 | [3] 0.016 | encorafenib -0.004 | [4] -0.065 | alisertib -0.029 | [1] 0 | gefitinib 0.03

GTF2H2C (UniProt Q6P1K8)
inactive: Tubastatin A -0.042 | [3] 0.083 | encorafenib -0.11 | [4] -0.067

GSR isoform 5 (UniProt P00390)
inactive: alvocidib -0.241 | Tubastatin A 0.073 | [2] 0.079 | defactinib 0.032 | [3] 0.325 | [1] 0.134

H3-3A (UniProt P84243)
inactive: alvocidib 0.021 | [2] 0.063 | defactinib -0.04 | encorafenib 0.132 | [4] -0.034 | [1] -0.032

GYG1 isoform 2 (UniProt P46976)
inactive: alvocidib 0.029 | Tubastatin A -0.01 | [2] -0.052 | defactinib -0.053 | [3] 0.028 | encorafenib 0.069 | [4] -0.034 | alisertib -0.005 | [1] 0.015 | gefitinib 0.084

GSK3B isoform 2 (UniProt P49841)
inactive: alvocidib 0.518 | Tubastatin A -0.077 | [2] 0.015 | defactinib 0.562 | [3] 0.114 | encorafenib 0.425 | [4] -0.114 | [1] 0 | gefitinib 0.029

HDAC8 (UniProt Q9BY41)
inactive: alvocidib 0.016 | Tubastatin A -0.002 | [2] 0.058 | defactinib -0.109 | [3] -0.071 | encorafenib 0.002 | [4] 0.172 | alisertib -0.015 | [1] 0.018 | gefitinib 0

GSTK1 (UniProt Q9Y2Q3)
inactive: alvocidib 0.026 | Tubastatin A 0.03 | [2] -0.031 | defactinib 0.029 | [3] 0.005 | encorafenib 0.007 | [4] -0.007 | alisertib 0.008 | [1] 0.003 | gefitinib -0.032

HCFC1 (UniProt P51610)
inactive: alvocidib -0.261 | Tubastatin A 0.137 | [2] 0.107 | defactinib -0.134 | alisertib 0.165 | [1] -0.048 | gefitinib -0.52
